Reference: article PMC4960319
These are yes or no findings as the source states them, for the method shown. Some results given as binding are weak or reduced against the parent protein; the word gives no strength. Tags and fused reporters may be left off the sequences shown.

Sequences of proteins named here, by UniProt entry; tags and fusion partners are left off.
UniProt Q7AKG9: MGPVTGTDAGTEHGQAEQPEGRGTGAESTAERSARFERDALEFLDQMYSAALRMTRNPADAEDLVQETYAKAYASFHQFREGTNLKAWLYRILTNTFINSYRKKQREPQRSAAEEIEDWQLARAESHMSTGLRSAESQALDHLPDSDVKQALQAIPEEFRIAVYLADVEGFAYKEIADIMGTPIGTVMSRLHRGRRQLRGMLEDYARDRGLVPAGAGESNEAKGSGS

Tests used:
[1] = molecular target: T1, RsrA with N-terminal histidine tag, co-expressed with σ^R (pET15b-rsrA) (Streptomyces coelicolor) (UniProt Q7AKG8); assay: co-purification of co-expressed proteins (Ni-NTA, then SEC); RsrA and σ^R co-expressed in E. coli; captured by the N-terminal histidine tag of RsrA on Ni-NTA, then Superdex-75
T1 sequence: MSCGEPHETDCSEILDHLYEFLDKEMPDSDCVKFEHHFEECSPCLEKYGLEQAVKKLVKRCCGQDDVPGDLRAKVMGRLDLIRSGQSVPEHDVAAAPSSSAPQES

[2] = molecular target: T1, RsrA with N-terminal histidine tag, co-expressed with σ^R (pET15b-rsrA) (Streptomyces coelicolor); assay: cross-linking; 5 μM purified complex with 2 mM BS2G-d0/d4 or BS3-d0/d4, 20 mM Hepes pH 7.5, 50 mM NaCl, 2 mM DTT, room temperature 30 min; SDS-PAGE bands digested with trypsin, LC-MS/MS, pLink; both purified

Substance: σ^R co-expressed with RsrA (pCDF-DUET1-sigR) (from UniProt Q7AKG9 1-227)
- binding [1]: binds
- binding [2]: binds
